Source: PubChem BioAssay AID493014 (National Center for Advancing Translational Sciences (NCATS), 2011)
The list shows a part of the results. These are further read-outs of the screen, such as a control signal, another cell line or another target. No call is given for them. Most of these compounds were active or inconclusive in the main read-out, so they are no random draw. Potencies come from curve fits of mixed quality, noted in brackets.

Assay: qHTS Assay to Find Inhibitors of Chronic Active B-Cell Receptor Signaling
Conditions: ABC-DLBCL IkBa-CBG/CBR reporter, luminescence ratio (green luciferase fused to IkBa over red control in TMD8 lymphoma cells), 4 h
Method in brief: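 Cell line TMD8 (human ABC DLBCL), stably expressing tet-inducible CBG68-IkBa fusion and CBR; IMDM/0.5% FBS; cpd up to 46 uM; dox induction, 4 h, 37C/5% CO2; dual luminescence; green/red ratio; MG132 control.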

[1] = measured here: CBR red luminescence, cell number
[2] = measured here: IkBa-CBG green luminescence

## Cc1ccc(S(=O)(=O)N(C)CC(=O)NCc2ccncc2)cc1
[1]
  AC50: 3.26 µM [rising, partial curve, poor fit]

## Cc1cc(C(F)F)n2nc(C(=O)Nc3cccc(C(F)(F)F)c3)nc2n1
[1]
  AC50: 6.51 µM [rising, partial curve, poor fit]

## CN1C(=O)CSc2ccc(NC(=O)Nc3ccccn3)cc21
[1]
  AC50: 0.58 µM [falling, full curve]

## CCN(CC)c1ccc2nc3ccc(N)cc3[n+](-c3ccccc3)c2c1
[2]
  AC50: 10.3 µM [rising, partial curve, poor fit]

## Cc1cc(C(=O)CSc2cccc[n+]2[O-])c(C)n1-c1ccc(Br)cc1
[1]
  AC50: 25.1 µM [falling, single point]
[2]
  AC50: 31.6 µM [falling, single point]

## COc1ccc(-n2c(SCC(=O)NCC3CCCO3)nc3ccccc32)cc1 (configuration not stated)
[1]
  AC50: 6.51 µM [rising, single point]

## CCOc1cc(/C=N/NC(=O)c2cccnc2)ccc1O
[1]
  AC50: 22.4 µM [falling, single point]

## COc1cccc(C(=O)Nc2ccc3c(c2)CCCN3C(=O)c2cccs2)c1OC
[1]
  AC50: 35.5 µM [falling, single point]

## CC(OC(=O)c1ccc2ccccc2n1)C(=O)c1ccccc1 (configuration not stated)
[1]
  AC50: 3.98 µM [rising, partial curve, poor fit]

## Cc1ccc(-n2ncc3c(NCCc4ccccc4)ncnc32)cc1
[1]
  AC50: 35.5 µM [falling, single point]

## CCOC(=O)c1cc(-c2ccccc2)nn1-c1ccccn1
[1]
  AC50: 0.651 µM [rising, full curve, poor fit]

## COCCn1c(SC(C)C(=O)NCC2CCCO2)nc2scc(-c3ccc(F)cc3)c2c1=O (configuration not stated)
[1]
  AC50: 14.6 µM [falling, partial curve, poor fit]
[2]
  AC50: 14.6 µM [rising, partial curve, poor fit]

## Cc1cc(=O)oc2ccc(OCC(=O)N(Cc3ccc(F)cc3)Cc3ccco3)cc12
[1]
  AC50: 20.6 µM [falling, single point]

## O=C(CCc1ccccc1)Nc1ccc(F)cc1F
[1]
  AC50: 18.4 µM [falling, partial curve, poor fit]

## COc1ccc(NC(=O)c2ccco2)cc1NC(=O)c1cccnc1
[1]
  AC50: 0.058 µM [rising, full curve, poor fit]

## COc1ccc(Nc2nc(-c3ccccc3)c(C(=O)Nc3cccnc3)s2)cc1
[1]
  AC50: 15.8 µM [falling, single point]

## COc1cccc(C(=O)OCC(=O)Nc2cc(C)c(C)cc2[N+](=O)[O-])c1
[1]
  AC50: 6.51 µM [rising, partial curve, poor fit]

## COC(=O)COc1cccc2c(=O)n(CC(=O)Nc3ccc4c(c3)OCCO4)ccc12
[1]
  AC50: 0.0891 µM [rising, full curve, poor fit]

## Cn1c(=O)c(Cc2ccccc2)c(O)c2ccccc21
[1]
  AC50: 20.6 µM [rising, single point]

## O=C(CCN1C(=O)/C(=C/c2ccccc2Cl)SC1=S)NC1CCS(=O)(=O)C1 (configuration not stated)
[1]
  AC50: 14.1 µM [falling, single point]

## c1ccc(Nc2nc(CSc3ncn[nH]3)cs2)cc1
[1]
  AC50: 28.2 µM [falling, single point]

## CCOC(=O)c1[nH]ncc1[C@@H]1C[C@H]2CN(Cc3cccc(Cl)c3)C(=O)[C@]23CCCN13
[1]
  AC50: 1.41 µM [rising, full curve, poor fit]

## O=[N+]([O-])c1cccc(-c2noc(-c3cccs3)n2)c1
[1]
  AC50: 0.631 µM [rising, full curve, poor fit]

## CC(CCc1ccccc1)NC(=O)c1ccccc1 (configuration not stated)
[1]
  AC50: 6.51 µM [falling, single point]

## CC(=O)Nc1nc2nc(-c3ccccc3)cc(-c3ccccc3)n2n1
[1]
  AC50: 3.98 µM [falling, full curve]

## O=C(COC(=O)c1ccc2c(c1[N+](=O)[O-])C(=O)c1ccccc1C2=O)NC1CC1
[1]
  AC50: 14.1 µM [falling, single point]

## Cc1ccc(C(=O)Nc2ccc(-n3c(C)nc4ccccc4c3=O)cc2)cc1[N+](=O)[O-]
[1]
  AC50: 15.8 µM [falling, single point]

## O=C(CN1CCC(NC(=O)Nc2ccc(F)cc2)CC1)Nc1ccccc1[N+](=O)[O-]
[1]
  AC50: 35.5 µM [rising, single point]
[2]
  AC50: 11.2 µM [falling, partial curve, poor fit]

## COc1ccc(C2COC(=O)C2=N)c(NC(=O)c2ccccc2)c1 (configuration not stated)
[1]
  AC50: 14.6 µM [falling, partial curve, poor fit]

## O=C(NCCC1=CCCCC1)c1c(O)nc2sccn2c1=O
[1]
  AC50: 2.91 µM [falling, partial curve, poor fit]

## O=C(Cn1cc(/C=N/NC(=O)c2ccccc2Br)c2ccccc21)Nc1ccc(F)cc1
[1]
  AC50: 18.4 µM [falling, single point]

## CSc1nc2ccc(NS(=O)(=O)c3ccc([N+](=O)[O-])cc3)cc2s1
[1]
  AC50: 15.8 µM [falling, partial curve, poor fit]

## O=C(NC(NNc1ccc([N+](=O)[O-])cc1)(C(F)(F)F)C(F)(F)F)c1ccccc1Cl
[1]
  AC50: 8.91 µM [falling, partial curve]

## O=C(Nc1ccccc1C(=O)NCCc1ccccc1)c1ccco1
[2]
  AC50: 12.6 µM [rising, partial curve, poor fit]

## COc1cc2c(cc1OC)CN(C(=O)C1CCCN1S(=O)(=O)c1ccc(C)cc1)CC2 (configuration not stated)
[1]
  AC50: 11.2 µM [rising, partial curve, poor fit]

## Oc1cccc2c(NC(=S)Nc3ccc(SC(F)F)cc3)cccc12
[1]
  AC50: 0.461 µM [falling, full curve]

## COc1ccc(/C=C2\SC(=S)N(CCC(=O)Nc3ccccc3C(=O)O)C2=O)cc1
[1]
  AC50: 1 µM [falling, full curve]

## O=c1[nH]c(-c2ccc(Cl)cc2)cs1
[1]
  AC50: 25.1 µM [rising, single point]

## Cc1cc(NS(=O)(=O)c2ccc(Nc3nc(-c4sc(C)nc4C)cs3)cc2)no1
[1]
  AC50: 0.00461 µM [rising, full curve, poor fit]
